From PMC11065694
These are yes or no findings as the source states them, for the method shown. Binding seen in cells or lysates may run through a third protein. Some results given as binding are weak or reduced against the parent protein; the word gives no strength.

Chains of the proteins cited; added tags and fusions are not shown. Residues count along the entry.
UniProt P05106, residues 27-788: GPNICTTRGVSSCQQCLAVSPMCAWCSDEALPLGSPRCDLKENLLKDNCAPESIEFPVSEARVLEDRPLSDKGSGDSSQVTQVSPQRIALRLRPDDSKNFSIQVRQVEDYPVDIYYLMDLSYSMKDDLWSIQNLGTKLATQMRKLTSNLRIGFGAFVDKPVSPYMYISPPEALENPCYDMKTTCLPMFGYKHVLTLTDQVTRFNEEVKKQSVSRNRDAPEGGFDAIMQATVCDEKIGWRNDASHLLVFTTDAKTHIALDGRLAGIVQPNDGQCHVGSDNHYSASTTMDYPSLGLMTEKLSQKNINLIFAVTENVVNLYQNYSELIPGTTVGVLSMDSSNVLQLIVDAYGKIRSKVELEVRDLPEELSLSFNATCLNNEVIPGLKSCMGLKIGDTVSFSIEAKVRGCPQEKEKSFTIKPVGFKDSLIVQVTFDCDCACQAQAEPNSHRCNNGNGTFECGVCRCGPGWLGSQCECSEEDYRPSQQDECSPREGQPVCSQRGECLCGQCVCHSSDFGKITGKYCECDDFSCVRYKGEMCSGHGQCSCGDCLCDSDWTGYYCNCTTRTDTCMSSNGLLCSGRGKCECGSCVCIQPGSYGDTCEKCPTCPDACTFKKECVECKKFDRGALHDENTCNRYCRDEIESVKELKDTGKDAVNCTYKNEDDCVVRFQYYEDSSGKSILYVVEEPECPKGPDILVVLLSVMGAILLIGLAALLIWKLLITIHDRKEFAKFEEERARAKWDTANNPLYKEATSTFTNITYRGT

Target: CD61-flag (integrin β3) (human) (UniProt P05106)
Assay: co-IP; anti-FLAG beads on pre-cleared lysates of integrin-transduced primary CD8+ T cells; Pierce IP Lysis Buffer (25 mM Tris pH 7.4, 150 mM NaCl, 1% Nonidet P-40, 1 mM EDTA, 5% glycerol); 4 °C overnight; eluted with 3X FLAG peptide; immunoblot with anti-CD103 and anti-FLAG

binding: binds
B1: CD103 (integrin αE) (protein, UniProt P38570 19-1179)
chain: FNVDVARPWLTPKGGAPFVLSSLLHQDPSTNQTWLLVTSPRTKRTPGPLHRCSLVQDEILCHPVEHVPIPKGRHRGVTVVRSHHGVLICIQVLVRRPHSLSSELTGTCSLLGPDLRPQAQANFFDLENLLDPDARVDTGDCYSNKEGGGEDDVNTARQRRALEKEEEEDKEEEEDEEEEEAGTEIAIILDGSGSIDPPDFQRAKDFISNMMRNFYEKCFECNFALVQYGGVIQTEFDLRDSQDVMASLARVQNITQVGSVTKTASAMQHVLDSIFTSSHGSRRKASKVMVVLTDGGIFEDPLNLTTVINSPKMQGVERFAIGVGEEFKSARTARELNLIASDPDETHAFKVTNYMALDGLLSKLRYNIISMEGTVGDALHYQLAQIGFSAQILDERQVLLGAVGAFDWSGGALLYDTRSRRGRFLNQTAAAAADAEAAQYSYLGYAVAVLHKTCSLSYIAGAPRYKHHGAVFELQKEGREASFLPVLEGEQMGSYFGSELCPVDIDMDGSTDFLLVAAPFYHVHGEEGRVYVYRLSEQDGSFSLARILSGHPGFTNARFGFAMAAMGDLSQDKLTDVAIGAPLEGFGADDGASFGSVYIYNGHWDGLSASPSQRIRASTVAPGLQYFGMSMAGGFDISGDGLADITVGTLGQAVVFRSRPVVRLKVSMAFTPSALPIGFNGVVNVRLCFEISSVTTASESGLREALLNFTLDVDVGKQRRRLQCSDVRSCLGCLREWSSGSQLCEDLLLMPTEGELCEEDCFSNASVKVSYQLQTPEGQTDHPQPILDRYTEPFAIFQLPYEKACKNKLFCVAELQLATTVSQQELVVGLTKELTLNINLTNSGEDSYMTSMALNYPRNLQLKRMQKPPSPNIQCDDPQPVASVLIMNCRIGHPVLKRSSAHVSVVWQLEENAFPNRTADITVTVTNSNERRSLANETHTLQFRHGFVAVLSKPSIMYVNTGQGLSHHKEFLFHVHGENLFGAEYQLQICVPTKLRGLQVVAVKKLTRTQASTVCTWSQERACAYSSVQHVEEWHSVSCVIASDKENVTVAAEISWDHSEELLKDVTELQILGEISFNKSLYEGLNAENHRTKITVVFLKDEKYHSLPIIIKGSVGGLLVLIVILVILFKCGFFKRKYQQLNLESIRKAQLKSENLLEEEN
